In test [1] the target is T1, GST fused to the cytoplasmic domain of Neto2 (GST-Neto2(CD)) (mouse) (UniProt Q8BNJ6).
T1 sequence: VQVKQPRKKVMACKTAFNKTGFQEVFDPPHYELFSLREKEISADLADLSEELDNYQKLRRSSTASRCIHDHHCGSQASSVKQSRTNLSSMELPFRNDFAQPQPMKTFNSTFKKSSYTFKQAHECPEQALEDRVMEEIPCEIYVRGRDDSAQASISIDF
The test can be described thus: pull-down; GST fusion proteins on glutathione agarose beads incubated with COS-7 cell lysates overexpressing GRIP(PDZ4-7)-myc overnight at 4°C; washed with RIPA buffer minus SDS and DOC; immunoblot; only the target purified. (Immunoblotting shows a protein as a band on a membrane.)

Test [2] has as its target T2, GST fused to the Neto2 cytoplasmic domain deletion mutant ΔIDF (GST-Neto2(CDΔIDF)) (mouse) (UniProt Q8BNJ6).
T2 sequence: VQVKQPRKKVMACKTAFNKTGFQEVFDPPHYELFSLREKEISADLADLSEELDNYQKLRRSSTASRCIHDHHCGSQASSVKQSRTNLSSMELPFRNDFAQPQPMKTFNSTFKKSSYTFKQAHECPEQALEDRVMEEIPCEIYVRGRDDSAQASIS
The description is as above.

Test [3] concerns the target T3, Full length mouse Neto1 (expressed in COS-7) (mouse) (UniProt Q8R4I7).
T3 sequence: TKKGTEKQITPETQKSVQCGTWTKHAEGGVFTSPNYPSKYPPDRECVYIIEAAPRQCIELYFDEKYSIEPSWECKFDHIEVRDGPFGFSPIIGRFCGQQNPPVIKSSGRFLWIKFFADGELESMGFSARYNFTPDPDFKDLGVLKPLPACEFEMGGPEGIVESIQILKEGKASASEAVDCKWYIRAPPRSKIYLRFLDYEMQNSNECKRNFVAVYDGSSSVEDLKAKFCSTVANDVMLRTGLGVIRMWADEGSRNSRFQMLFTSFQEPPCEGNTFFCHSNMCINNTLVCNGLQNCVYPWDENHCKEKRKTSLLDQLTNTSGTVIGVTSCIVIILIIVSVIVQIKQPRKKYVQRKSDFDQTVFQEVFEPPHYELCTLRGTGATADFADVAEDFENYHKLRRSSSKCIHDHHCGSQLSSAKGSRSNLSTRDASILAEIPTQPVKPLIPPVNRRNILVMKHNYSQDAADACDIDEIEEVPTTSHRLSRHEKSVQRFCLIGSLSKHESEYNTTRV
The test can be described thus: co-IP; lysates of transfected COS-7 cells (RIPA buffer), immunoprecipitation with anti-Neto2 antibodies (Neto1 panel: Figure 3D), immunoblot.

Test [4] has as its target T4, Full length mouse Neto2 (expressed in COS-7) (mouse) (UniProt Q8BNJ6).
T4 sequence: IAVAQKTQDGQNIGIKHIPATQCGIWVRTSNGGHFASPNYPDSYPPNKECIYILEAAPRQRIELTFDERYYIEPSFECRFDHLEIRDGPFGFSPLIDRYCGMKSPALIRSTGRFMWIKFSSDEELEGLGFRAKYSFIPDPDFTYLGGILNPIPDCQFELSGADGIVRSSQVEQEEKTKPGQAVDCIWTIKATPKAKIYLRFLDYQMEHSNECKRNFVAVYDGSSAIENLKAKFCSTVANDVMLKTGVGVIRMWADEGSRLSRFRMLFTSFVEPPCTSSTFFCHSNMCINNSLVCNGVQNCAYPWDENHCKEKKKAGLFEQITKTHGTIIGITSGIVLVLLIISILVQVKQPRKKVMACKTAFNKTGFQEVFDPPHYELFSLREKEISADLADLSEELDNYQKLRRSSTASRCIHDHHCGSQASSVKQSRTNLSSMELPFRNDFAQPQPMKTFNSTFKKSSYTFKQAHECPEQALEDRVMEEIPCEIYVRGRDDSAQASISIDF
Described as above.

The target of test [5] is T5, Neto2 C-terminal truncation mutant (Neto2Δ7), lacking the last seven C-terminal residues (mouse) (UniProt Q8BNJ6).
T5 sequence: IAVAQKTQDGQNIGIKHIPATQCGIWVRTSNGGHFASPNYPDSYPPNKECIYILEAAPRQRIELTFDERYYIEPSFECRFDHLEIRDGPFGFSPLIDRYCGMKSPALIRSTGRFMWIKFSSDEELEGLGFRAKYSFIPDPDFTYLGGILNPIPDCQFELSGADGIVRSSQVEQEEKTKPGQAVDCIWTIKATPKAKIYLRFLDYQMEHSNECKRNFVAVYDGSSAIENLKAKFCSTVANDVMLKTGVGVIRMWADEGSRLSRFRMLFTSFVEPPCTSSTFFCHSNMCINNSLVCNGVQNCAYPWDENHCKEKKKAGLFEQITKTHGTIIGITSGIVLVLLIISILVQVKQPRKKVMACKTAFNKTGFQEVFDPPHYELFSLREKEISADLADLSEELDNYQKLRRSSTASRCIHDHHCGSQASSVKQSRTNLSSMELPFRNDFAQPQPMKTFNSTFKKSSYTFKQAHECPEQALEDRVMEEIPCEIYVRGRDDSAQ
The test is described as above.

The target in test [6] is T6, Neto2 cytoplasmic domain (Neto2(CD), amino acids 368-525) fused to the GAL4 DNA-binding domain (mouse) (UniProt Q8BNJ6).
T6 sequence: T1 sequence
Description: two-hybrid; GAL4 DNA-binding domain fusions in pDBLeu, GAL4 activation domain fusions in pPC86, MaV203 cells; growth on -Trp/-Leu/-His and lacZ reporter (ß-galactosidase assay).

Test [7] has as its target T7, Neto2 cytoplasmic domain truncation mutant ΔIDF (Neto2(CD-ΔIDF), amino acids 368-522) fused to the GAL4 DNA-binding domain (mouse) (UniProt Q8BNJ6).
T7 sequence: T2 sequence
Described as above.

For test [8], the target named is T8, Neto1 cytoplasmic domain (Neto1(CD), amino acids 345-533), two-hybrid bait (mouse) (UniProt Q8R4I7).
T8 sequence: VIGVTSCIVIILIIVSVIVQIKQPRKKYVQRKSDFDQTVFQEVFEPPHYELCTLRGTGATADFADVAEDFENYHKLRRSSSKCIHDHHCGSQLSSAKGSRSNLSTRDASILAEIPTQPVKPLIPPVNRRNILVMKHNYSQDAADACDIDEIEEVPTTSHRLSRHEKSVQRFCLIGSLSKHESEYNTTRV
Described as above.

Test [9] addresses GRIP (native, mouse brain) (mouse (endogenous in cerebellum and whole brain)). The test can be described thus: co-IP; mouse whole brain membrane fractions, immunoprecipitation with an anti-GRIP antibody, normal rabbit IgG as negative control.
The target is the same in test [10]. The test can be described thus: co-IP; mouse cerebellar membrane fractions, immunoprecipitation with an anti-GRIP antibody, normal rabbit IgG as negative control.

These are yes or no findings as the source states them, for the method shown. For some assays here: A result given as binding can be weak or reduced; the word gives no strength. For some assays here: Where a sequence is shown, tags or fusion partners need not be part of it. For some assays here: Binding seen in cells or lysates may run through a third protein.

Turning to “C-terminal myc-tagged GRIP(PDZ4-7) (mouse) (domain or fragment)”, the binding entry is “binds” in [1]; “no binding” in test [2]; “no binding” in test [3]; “binds” in test [4]; “no binding” in test [5].
For “GRIP(PDZ4-7) fused to the GAL4 activation domain (mouse) (domain or fragment)”, the binding result in [6] was “binds”; in [7], “no binding”; in test [8], “no binding”.

B1: Neto2 (native, mouse brain) (protein, UniProt Q8BNJ6 23-525)
chain: T4 sequence
As to B1, the binding entry in test [9] and in test [10] was “binds” in each case.

B2: Neto1 (native, mouse whole brain) (protein, UniProt Q8R4I7 23-533)
chain: T3 sequence
For the molecule B2, the binding result in test [9] is given as “no binding”.

For the origin of these results see PMC3516556.
